Experimental data published in ChEMBL document CHEMBL3044741, “Synthesis of novel biologically active methylene derivatives of sydnones” (Med Chem Res, 2013).

Columns and labels:
Aspergillus niger = assay: Antifungal activity against Aspergillus niger MTCC 282 at 250 ug/ml after 74 hrs by Kirby-Bauer method; format: functional
Candida albicans = assay: Antifungal activity against Candida albicans MTCC 227 at 250 ug/ml after 74 hrs by Kirby-Bauer method; format: functional

## NYSTATIN
Aspergillus niger
  inhibition zone (IZ): 29 mm
Candida albicans
  inhibition zone (IZ): 22 mm
